These are yes or no findings as the source states them, for the method shown. In cells and extracts the contact can be indirect. Binding calls can cover weak binding; strength is not graded here.
Target: LRP6-E1E2 (a region of amino acid numbers 1 to 629 of human LRP6, fused to a His tag) (human) (UniProt O75581)
Assay: co-precipitation of His-tagged LRP6-E1E2 with PA-tagged mouse USAG-1 (by NZ-1, or by anti-USAG-1 antibody on Protein A sepharose); SDS-PAGE, Oriole staining

Amino acid sequences for entries named in this document (tags omitted). A change or cut given only in a name is not applied to a line headed by its entry. Residues count along the entry.
UniProt O75581: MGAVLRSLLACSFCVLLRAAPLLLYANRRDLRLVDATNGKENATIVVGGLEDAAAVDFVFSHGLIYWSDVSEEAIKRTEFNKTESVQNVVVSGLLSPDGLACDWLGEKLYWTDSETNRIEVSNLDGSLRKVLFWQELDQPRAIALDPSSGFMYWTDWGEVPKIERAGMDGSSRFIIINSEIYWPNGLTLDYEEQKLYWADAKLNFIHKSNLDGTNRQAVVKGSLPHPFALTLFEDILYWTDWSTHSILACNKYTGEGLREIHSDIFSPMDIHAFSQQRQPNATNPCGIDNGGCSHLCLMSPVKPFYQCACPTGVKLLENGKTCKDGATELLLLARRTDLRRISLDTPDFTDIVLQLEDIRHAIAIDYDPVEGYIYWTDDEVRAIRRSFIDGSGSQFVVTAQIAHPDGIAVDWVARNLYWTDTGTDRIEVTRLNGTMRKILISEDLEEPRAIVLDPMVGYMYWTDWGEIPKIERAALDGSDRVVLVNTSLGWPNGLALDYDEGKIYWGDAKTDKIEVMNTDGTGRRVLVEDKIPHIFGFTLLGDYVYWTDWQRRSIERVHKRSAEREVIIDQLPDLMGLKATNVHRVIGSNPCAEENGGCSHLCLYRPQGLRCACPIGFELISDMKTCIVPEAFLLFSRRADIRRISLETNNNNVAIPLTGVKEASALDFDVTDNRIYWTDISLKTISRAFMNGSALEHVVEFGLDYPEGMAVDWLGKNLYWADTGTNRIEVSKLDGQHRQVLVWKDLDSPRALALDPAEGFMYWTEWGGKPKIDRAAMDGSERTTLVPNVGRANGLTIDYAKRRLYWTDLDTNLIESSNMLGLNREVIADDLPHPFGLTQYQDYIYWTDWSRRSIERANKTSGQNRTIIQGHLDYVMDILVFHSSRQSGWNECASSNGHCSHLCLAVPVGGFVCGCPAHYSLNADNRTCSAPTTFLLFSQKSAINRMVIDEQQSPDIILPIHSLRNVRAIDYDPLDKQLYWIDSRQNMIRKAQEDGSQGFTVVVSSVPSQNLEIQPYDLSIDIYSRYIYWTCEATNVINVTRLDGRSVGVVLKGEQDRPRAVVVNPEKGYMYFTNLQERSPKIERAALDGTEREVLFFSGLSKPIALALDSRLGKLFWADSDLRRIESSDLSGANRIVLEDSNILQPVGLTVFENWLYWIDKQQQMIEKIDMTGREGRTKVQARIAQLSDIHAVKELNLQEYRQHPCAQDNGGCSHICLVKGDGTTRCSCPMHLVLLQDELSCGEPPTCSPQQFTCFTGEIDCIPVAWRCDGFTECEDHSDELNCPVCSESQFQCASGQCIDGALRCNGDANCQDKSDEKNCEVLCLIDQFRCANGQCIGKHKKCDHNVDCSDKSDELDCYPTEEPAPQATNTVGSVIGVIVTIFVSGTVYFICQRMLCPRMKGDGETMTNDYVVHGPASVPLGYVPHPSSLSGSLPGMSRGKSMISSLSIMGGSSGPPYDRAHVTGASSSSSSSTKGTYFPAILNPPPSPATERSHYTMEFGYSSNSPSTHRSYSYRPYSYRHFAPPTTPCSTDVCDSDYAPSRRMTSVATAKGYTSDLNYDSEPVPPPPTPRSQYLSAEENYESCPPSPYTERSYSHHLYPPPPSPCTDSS
UniProt Q9CQN4, residues 24-206: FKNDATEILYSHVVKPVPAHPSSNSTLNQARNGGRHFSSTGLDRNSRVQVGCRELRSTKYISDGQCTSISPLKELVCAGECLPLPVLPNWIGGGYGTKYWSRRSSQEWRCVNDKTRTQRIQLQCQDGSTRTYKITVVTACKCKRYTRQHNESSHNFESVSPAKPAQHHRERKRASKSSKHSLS

binding: binds
Substance: N-terminal PA-tagged mouse USAG-1 (WISE) recombinant protein (from UniProt Q9CQN4 24-206) (ligand)
